{"sequences": {"note": "Protein sequences, listed by entry. Tags and fused reporters are not part of them. Residues count along the entry.", "UniProt Q9Z1T2, residues 27-963": "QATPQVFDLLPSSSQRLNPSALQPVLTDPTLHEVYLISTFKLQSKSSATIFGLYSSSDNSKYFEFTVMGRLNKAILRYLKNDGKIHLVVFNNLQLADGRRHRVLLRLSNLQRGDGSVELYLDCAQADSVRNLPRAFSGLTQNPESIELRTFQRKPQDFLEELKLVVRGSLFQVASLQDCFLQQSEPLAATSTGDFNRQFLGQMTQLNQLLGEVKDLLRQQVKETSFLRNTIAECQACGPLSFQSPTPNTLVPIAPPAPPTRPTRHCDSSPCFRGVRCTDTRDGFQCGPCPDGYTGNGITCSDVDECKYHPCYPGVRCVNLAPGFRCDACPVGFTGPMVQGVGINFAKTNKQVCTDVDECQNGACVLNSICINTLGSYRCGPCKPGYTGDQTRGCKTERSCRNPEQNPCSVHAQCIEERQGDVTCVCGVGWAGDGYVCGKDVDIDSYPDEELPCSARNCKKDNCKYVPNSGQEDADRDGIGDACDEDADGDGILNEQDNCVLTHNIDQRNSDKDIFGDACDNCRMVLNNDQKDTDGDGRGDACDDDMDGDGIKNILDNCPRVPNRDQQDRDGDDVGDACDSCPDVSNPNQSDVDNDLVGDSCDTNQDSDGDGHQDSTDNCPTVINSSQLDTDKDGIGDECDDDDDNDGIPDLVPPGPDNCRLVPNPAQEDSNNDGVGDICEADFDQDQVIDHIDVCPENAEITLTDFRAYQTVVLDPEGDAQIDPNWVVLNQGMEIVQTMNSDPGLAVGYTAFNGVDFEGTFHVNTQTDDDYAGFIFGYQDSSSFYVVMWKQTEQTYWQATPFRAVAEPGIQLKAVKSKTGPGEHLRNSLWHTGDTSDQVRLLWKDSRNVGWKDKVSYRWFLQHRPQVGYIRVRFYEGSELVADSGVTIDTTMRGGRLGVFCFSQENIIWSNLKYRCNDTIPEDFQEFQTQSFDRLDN"}, "source": "paper PMC5063588", "binders": {"B1": {"name": "α7-integrin (receptor, UniProt Q63258 34-1135)", "chain": "FNLDVMGAIRKEGEPGSLFGFSVALHRQLQPRPQSWLLVGAPQALALPGQQANRTGGLFACPLSLEETDCYRVDIDRGANVQKESKENQWLGVSVRSQGAGGKVVTCAHRYESRQRVDQVLETRDVIGRCFVLSQDLAIRDELDGGEWKFCEGRPQGHEQFGFCQQGTAATFSPDSHYLIFGAPGTYNWKGLLFVTNIDSSDPDQLVYKTLDPADRLTGPAGDLTLNSYLGFSIDSGKGLMRSEELSFVAGAPRANHKGAVVILRKDSASRLIPEVVLSGERLTSGFGYSLAVTDLNSDGWADLIVGAPYFFERQEELGGAVYVYMNQGGHWADISPLRLCGSPDSMFGISLAVLGDLNQDGFPDIAVGAPFDGDGKVFIYHGSSLGVVTKPSQVLEGEAVGIKSFGYSLSGGLDVDGNHYPDLLVGSLADTAALFRARPVLHVSQEIFIDPRAIDLEQPNCADGRLVCVHVKVCFSYVAVPSSYSPIVVLDYVLDGDTDRRLRGQAPRVTFPGRGPDDLKHQSSGTVSLKHQHDRVCGDTVFQLQENVKDKLRAIVVTLSYGLQTPRLRRQAPDQGLPLVAPILNAHQPSTQRTEIHFLKQGCGDDKICQSNLQLAQAQFCSRISDTEFQALPMDLDGTALFALSGQPFIGLELTVTNLPSDPARPQADGDDAHEAQLLATLPASLRYSGVRTLDSVEKPLCLSNENASHVECELGNPMKRGTQVTFYLILSTSGITIETTELKVELLLATISEQDLHPVSVRAHVFIELPLSISGVATPQQLFFSGKVKGESAMRSERDVGSKVKYEVTVSNQGQSLNTLGSAFLNIMWPHEIANGKWLLYPMRVELEGGQGPEKKGICSPRPNILHLDVDSRDRRRRELGQPEPQEPPEKVEPSTSWWPVSSAEKRNVTLDCAQGTAKCVVFSCPLYSFDRAAVLHVWGRLWNSTFLEEYMSVKSLEVIVRANITVKSSIKNLLLRDASTVIPVMVYLDPVAVVAEGVPWWVILLAVLAGLLVLALLVLLLWKLGFFKRAKHPEATVPQYHAVKILREDRQQFKEEKTGTIQRSNWGNSQWEGSDAHPILAADWHPELGPDGHPVSVTA"}}, "molecular_target": "Flag-tagged full-length Thbs4 (thrombospondin-4) (mouse) (UniProt Q9Z1T2)", "experiment": "co-IP; lysates of rat neonatal cardiomyocytes harvested two days after transduction with adenovirus for Thbs4 with a C-terminal Flag tag (Adβgal as control); precipitated with anti-Flag magnetic beads; immunoblotted for Flag, β1D-integrin, α7-integrin and β-dystroglycan", "note": "Results are given in words; binding and its absence hold for the method and conditions named. Binding seen in cells or lysates may run through a third protein.", "data": [{"binder": "B1", "values": [{"measurement": "binding", "value": "no binding"}]}]}
